This passage reports binding results from article PMC6127886.

This experiment addresses epidermal growth factor-like protein 7 (EGFL7), recombinant purified (UniProt Q9UHF1). The experiment can be described thus: negative-stain transmission electron microscopy; purified recombinant EGFL7 on a glow discharged carbon-coated grid, stained with uranyl formate, JEOL 1400Plus at 120 kV; class sums of 10-30 particles; both purified.

These are yes or no findings as the source states them, for the method shown. Some binding calls cover weakened binding; strength is not graded here.

B1: epidermal growth factor-like protein 7 (EGFL7), recombinant purified (protein, UniProt Q9UHF1 24-273)
chain: YRPGRRVCAVRAHGDPVSESFVQRVYQPFLTTCDGHRACSTYRTIYRTAYRRSPGLAPARPRYACCPGWKRTSGLPGACGAAICQPPCRNGGSCVQPGRCRCPAGWRGDTCQSDVDECSARRGGCPQRCVNTAGSYWCQCWEGHSLSADGTLCVPKGGPPRVAPNPTGVDSAMKEEVQRLQSRVDLLEEKLQLVLAPLHSLASQALEHGLPDPGSLLVHSFQQLGRIDSLSEQISFLEEQLGSCSCKKDS
Take B1: the binding entry was “binds”.
